Test results published in patent US20200181245A1 (University of California, published 2020).
No constants are given. Whether binding was seen depends on the method and setting.

The chains behind the UniProt entries cited, without tags or fusion partners. Where a name states a change or a piece, a line headed by the entry shows the natural chain unless it says otherwise.
UniProt P10637: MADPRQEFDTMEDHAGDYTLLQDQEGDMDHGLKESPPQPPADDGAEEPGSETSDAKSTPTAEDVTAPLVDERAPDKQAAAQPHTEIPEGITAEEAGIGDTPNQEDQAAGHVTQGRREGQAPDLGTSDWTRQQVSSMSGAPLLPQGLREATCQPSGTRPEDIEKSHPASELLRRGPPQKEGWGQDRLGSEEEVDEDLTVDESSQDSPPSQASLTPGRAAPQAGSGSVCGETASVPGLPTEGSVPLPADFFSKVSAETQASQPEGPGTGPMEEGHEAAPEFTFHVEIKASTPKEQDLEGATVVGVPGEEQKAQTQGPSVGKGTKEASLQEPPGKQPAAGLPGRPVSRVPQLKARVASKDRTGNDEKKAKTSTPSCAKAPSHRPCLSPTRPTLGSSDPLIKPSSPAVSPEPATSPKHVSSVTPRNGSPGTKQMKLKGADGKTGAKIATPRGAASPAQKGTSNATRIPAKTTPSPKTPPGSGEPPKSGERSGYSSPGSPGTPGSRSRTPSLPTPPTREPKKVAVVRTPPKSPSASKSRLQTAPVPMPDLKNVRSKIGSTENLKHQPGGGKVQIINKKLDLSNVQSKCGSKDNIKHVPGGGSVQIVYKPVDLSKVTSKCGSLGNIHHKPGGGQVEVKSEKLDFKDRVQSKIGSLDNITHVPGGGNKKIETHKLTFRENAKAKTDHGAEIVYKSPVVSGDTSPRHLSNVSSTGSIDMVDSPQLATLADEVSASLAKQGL

What was measured:
[1] = molecular target: endogenous mouse Tau (4RTau of adult mouse neurons; non-tg mice) (mouse) (UniProt P10637); assay: immunostaining of mouse neuronal cells
[2] = molecular target: 4RTau expressed in 4RTau tg mice; assay: immunostaining of brain sections from non-tg, 3RTau tg and 4RTau tg mice

B1: 3RT single chain antibody (Clone 5F10) (scFv)
scFv: MEQVNLRESGAEVKKPGASVKVSCKVSGYTFTGYYMHWVRQAPGQGLEWMGWINSNSGATKYAQKFQGRVTMTRDTSITTAYMELSSLRSDDTAVYYCARGARDGYGFDYWGQGTLVTVLAGGGGSGGGGSGGGGSGAPSYVLTQPPSASGTPGQRVTISCSGGSSNIGSNAVSWYQQLPGTAPKLLIFTNDQRPSGVPDRFSGSKSGTSAPLAISGLQSEDESDYYCATWDDSLNGWVFGGGTKVTVRS
notes: Human scFv from a phage display library; It was expressed from mammalian scFV cassettes; also called 3RT scFV; 3RTau scFV
For B1, which binding [1] is on record?
The binding was “no binding”.

What about the binding [2] of the same binder?
The binding was “no binding”.
